Results on 5 sequences are retold here after patent US20050118148.

Sequences of proteins named here, by UniProt entry; tags and fusion partners are left off. A change or cut given only in a name is not applied to a line headed by its entry.
UniProt Q8CF90: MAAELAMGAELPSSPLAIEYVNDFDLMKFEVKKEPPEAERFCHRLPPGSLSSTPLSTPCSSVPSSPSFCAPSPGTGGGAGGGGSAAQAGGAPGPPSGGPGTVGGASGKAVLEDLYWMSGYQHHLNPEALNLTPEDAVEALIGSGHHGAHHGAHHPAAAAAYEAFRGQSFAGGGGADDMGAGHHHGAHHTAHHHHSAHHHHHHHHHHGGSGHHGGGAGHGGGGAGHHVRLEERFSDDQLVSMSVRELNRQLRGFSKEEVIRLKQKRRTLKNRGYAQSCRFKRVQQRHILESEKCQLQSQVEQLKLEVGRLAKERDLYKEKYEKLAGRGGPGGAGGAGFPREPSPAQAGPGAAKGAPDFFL
UniProt P54841: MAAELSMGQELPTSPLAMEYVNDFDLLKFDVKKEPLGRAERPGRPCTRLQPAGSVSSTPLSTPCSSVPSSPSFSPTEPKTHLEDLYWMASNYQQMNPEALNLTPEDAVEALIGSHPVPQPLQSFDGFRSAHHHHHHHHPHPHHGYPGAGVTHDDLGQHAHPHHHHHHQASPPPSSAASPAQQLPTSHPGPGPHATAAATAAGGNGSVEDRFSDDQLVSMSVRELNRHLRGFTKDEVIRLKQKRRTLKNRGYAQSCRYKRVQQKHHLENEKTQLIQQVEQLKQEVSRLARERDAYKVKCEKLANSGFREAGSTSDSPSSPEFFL

The target in data set [1] is RIPE3b1 activator (MafA, endogenous) (Mus musculus) (UniProt Q8CF90). Description: EMSA. As to conditions: protein in an extract, protein details: beta cell line nuclear extract (betaTC-3, Min6), label: 32P.
The target of data set [2] is MafA (mouse L-Maf, RIPE3b1 activator) (Mus musculus) (UniProt Q8CF90). Description: EMSA. As to conditions: HeLa nuclear extract, 100 mM NaCl, 4 C; protein in a lysate after overexpression; label: 32P. (Mobility shift assays separate free from complexed probe on a gel.)
The target in data set [3] is MafB (Mus musculus) (UniProt P54841). Description: EMSA. To be noted: HeLa nuclear extract, 100 mM NaCl, 4 C; protein in a lysate after overexpression; label: 32P.
In data set [4] the target is T1, c-Maf (Mus musculus) (UniProt P54843).
T1 sequence (looked up, limits assumed): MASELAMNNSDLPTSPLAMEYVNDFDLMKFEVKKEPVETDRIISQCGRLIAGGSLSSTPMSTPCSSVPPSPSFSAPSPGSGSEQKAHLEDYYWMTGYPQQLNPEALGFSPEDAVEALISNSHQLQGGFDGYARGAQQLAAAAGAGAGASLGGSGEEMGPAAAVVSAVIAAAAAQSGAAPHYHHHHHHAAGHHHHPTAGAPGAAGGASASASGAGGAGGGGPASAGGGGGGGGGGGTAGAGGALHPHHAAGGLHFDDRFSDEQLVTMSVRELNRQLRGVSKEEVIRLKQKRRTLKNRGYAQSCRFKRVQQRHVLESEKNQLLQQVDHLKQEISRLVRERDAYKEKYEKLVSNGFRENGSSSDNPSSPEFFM
The experiment in a line: EMSA. To be noted: HeLa nuclear extract, 100 mM NaCl, 4 C; protein in a lysate after overexpression; label: 32P.

For data set [5], the target named is MafA (mouse L-Maf, RIPE3b1 activator) (Mus musculus) (UniProt Q8CF90). The experiment in a line: competition with a labelled probe. To be noted: 10x competitor did not compete; protein in a lysate after overexpression; variant of C1/RIPE3b1 (rat insulin II -126/-101).
Data set [6] concerns the target MafB (Mus musculus) (UniProt P54841). The experiment in a line: competition with a labelled probe. To be noted: 10x competitor did not compete; protein in a lysate after overexpression; variant of C1/RIPE3b1 (rat insulin II -126/-101).
The target in data set [7] is T1, c-Maf (Mus musculus). Description: competition with a labelled probe. As to conditions: 10x competitor did not compete; protein in a lysate after overexpression; variant of C1/RIPE3b1 (rat insulin II -126/-101).
Data set [8] deals with RIPE3b1 activator (MafA, endogenous) (Mus musculus) (UniProt Q8CF90). Description: pull-down. As to conditions: oligonucleotide trapping, second affinity step; protein in an extract; protein details: beta cell line nuclear extract (betaTC-3, Min6).

At least one result comes from cells or an extract, where the contact may be indirect. For some of these results: A negative result means that nothing was seen under these conditions. For some of these results: Tags and fusion partners may be left off the protein sequences shown. For some of these results: The exact form of at least one protein or probe is not confirmed.

For “AGCTTAAAGCACAGCAAAAATATTAT (double strand) [pdx-1 B5]”, the binding result in data set [1] (variant of pdx-1 B4/5) was “no binding”.
As to “TGGAAACTGCAGCTTCAGCCCCTCTG (double strand) [C1/RIPE3b1 (rat insulin II -126/-101)]”, the binding result in data set [2] is “binds”; in data set [3], “binds”; in data set [1] (supershifted by anti-Maf, also South-Western), “binds”; in data set [4], “binds”.
“TGGAAACTGCAGCTTACTACCCTCTG (double strand) [C1/RIPE3b1 -111/-108 mutant]”: the binding result in data set [5], in data set [6] and in data set [7] was “no binding” throughout.
Consider “TCTTTTTGCAAAGCACAGCAAAAA (double strand) [pdx-1 -2106/-2083]”, for which the binding result in data set [8] is on record as “binds”.
Take “AGCTTCTTTTTGCAAAGCACAGCAAAAAT (double strand) [pdx-1 B4/5]”: the binding result in data set [1] was “binds”.
